Results reported in publication PMC8191807, “The fidelity of DNA replication, particularly on GC-rich templates, is reduced by defects of the Fe–S cluster in DNA polymerase δ” (Nucleic Acids Research, 2021).
Results are given in words; binding and its absence hold for the method and conditions named. Some binding calls cover weakened binding; strength is not graded here. For some of these results: Tags and fused reporters may be left off the sequences shown.

T1: Pol3 fused to a LexA DNA-binding domain (LexABD-POL3, pBL322) (S. cerevisiae) (UniProt P15436)
T1 sequence: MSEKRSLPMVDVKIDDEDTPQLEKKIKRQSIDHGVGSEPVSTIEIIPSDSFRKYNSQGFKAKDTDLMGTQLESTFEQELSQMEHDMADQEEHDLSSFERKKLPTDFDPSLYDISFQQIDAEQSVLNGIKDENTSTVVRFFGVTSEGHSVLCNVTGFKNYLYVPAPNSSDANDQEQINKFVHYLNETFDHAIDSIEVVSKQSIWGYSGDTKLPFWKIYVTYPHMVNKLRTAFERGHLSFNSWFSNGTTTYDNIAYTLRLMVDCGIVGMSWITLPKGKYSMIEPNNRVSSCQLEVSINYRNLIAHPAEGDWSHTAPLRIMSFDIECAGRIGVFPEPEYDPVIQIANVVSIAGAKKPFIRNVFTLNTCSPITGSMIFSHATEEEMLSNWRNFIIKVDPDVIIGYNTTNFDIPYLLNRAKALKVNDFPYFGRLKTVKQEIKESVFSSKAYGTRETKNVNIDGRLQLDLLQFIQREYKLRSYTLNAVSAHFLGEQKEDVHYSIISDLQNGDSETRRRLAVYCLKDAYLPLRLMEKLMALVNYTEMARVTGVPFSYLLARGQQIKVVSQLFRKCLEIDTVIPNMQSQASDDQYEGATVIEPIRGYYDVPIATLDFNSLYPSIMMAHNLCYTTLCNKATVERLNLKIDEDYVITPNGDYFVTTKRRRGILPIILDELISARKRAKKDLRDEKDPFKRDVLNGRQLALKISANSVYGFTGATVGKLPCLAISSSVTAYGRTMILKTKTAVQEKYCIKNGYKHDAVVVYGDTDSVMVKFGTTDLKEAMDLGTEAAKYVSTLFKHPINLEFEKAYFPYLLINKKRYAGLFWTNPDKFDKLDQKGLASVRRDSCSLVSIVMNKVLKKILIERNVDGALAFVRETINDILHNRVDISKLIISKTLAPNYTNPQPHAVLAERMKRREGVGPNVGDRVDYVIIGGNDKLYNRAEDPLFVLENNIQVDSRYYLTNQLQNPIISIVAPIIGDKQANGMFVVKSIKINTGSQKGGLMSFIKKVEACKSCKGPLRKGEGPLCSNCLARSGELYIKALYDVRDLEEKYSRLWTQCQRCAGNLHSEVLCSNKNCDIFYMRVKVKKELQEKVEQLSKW

T2: Pol3p, catalytic subunit of DNA polymerase δ (overexpressed for Pol δ purification) (S. cerevisiae) (UniProt P15436)
T2 sequence: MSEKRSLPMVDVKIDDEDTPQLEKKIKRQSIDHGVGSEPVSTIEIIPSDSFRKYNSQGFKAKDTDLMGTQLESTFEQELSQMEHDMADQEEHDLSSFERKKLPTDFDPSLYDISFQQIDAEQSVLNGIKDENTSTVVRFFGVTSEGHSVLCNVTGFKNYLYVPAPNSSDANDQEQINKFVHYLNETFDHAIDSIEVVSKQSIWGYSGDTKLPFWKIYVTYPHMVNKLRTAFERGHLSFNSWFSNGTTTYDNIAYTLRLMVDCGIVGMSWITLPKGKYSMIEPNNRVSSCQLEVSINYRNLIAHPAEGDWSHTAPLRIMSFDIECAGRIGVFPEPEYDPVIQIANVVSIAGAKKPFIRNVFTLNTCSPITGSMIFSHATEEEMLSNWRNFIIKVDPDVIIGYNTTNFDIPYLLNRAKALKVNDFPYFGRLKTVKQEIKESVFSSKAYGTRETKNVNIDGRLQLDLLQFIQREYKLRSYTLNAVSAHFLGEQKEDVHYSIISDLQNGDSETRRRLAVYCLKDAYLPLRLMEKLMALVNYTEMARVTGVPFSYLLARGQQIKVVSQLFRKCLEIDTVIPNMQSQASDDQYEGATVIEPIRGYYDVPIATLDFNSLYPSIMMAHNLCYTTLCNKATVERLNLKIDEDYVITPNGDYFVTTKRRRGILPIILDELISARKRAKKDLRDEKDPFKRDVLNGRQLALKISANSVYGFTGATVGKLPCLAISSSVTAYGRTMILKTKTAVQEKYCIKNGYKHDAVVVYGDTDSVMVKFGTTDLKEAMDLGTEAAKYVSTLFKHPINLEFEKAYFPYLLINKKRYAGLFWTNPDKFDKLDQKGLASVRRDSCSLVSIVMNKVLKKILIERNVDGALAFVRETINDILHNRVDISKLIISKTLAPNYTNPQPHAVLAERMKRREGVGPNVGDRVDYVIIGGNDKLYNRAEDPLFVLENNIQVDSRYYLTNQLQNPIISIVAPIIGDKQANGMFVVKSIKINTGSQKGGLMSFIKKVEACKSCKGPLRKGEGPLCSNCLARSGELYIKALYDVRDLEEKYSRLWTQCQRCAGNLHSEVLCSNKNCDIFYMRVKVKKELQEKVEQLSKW

T3: Pol31 fused to a LexA DNA-binding domain (LexBD-POL31, pBL363) (S. cerevisiae) (UniProt P46957)
T3 sequence: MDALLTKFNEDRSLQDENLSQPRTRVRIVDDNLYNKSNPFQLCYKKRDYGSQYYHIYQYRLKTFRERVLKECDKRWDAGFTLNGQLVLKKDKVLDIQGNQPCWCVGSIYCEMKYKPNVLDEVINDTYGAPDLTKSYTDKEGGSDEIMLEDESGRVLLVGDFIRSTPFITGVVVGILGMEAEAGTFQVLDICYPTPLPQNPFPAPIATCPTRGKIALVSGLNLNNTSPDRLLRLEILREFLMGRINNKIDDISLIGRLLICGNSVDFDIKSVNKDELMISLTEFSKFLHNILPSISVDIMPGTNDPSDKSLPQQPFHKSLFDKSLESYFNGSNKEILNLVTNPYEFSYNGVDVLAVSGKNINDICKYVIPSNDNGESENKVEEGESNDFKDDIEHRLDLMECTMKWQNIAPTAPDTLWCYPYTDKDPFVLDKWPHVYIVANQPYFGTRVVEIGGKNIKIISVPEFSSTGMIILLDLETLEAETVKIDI


Key:
[1] = target: T1, Pol3 fused to a LexA DNA-binding domain (LexABD-POL3, pBL322) (S. cerevisiae); assay: two-hybrid; LexA DNA-binding domain and GAL4 activation domain fusions, (lexAop)8-lacZ reporter, quantitative β-galactosidase assays in triplicate; wild-type strain L40 and its met18Δ derivative DKy440
[2] = target: T2, Pol3p, catalytic subunit of DNA polymerase δ (overexpressed for Pol δ purification) (S. cerevisiae); assay: co-purification (glutathione Sepharose, MonoS FPLC), composition by gel electrophoresis; as a1, but overexpressed in and purified from the met18Δ derivative DKy501
[3] = target: T3, Pol31 fused to a LexA DNA-binding domain (LexBD-POL31, pBL363) (S. cerevisiae); assay: two-hybrid; LexA DNA-binding domain and GAL4 activation domain fusions, (lexAop)8-lacZ reporter, quantitative β-galactosidase assays in triplicate; wild-type strain L40 and its met18Δ derivative DKy440

Binder | binding [2] | further results
Pol31 fused to a GAL4-activation domain (GAL4AD-POL31, pBL364) (natural protein, S. cerevisiae, UniProt P46957 1-487, looked up, Pol31p, accessory subunit of DNA polymerase δ, Saccharomyces cerevisiae; also called Pol31^AD; source: yeast two-hybrid fusion (2μ vector pACT2, strain L40 or its met18Δ derivative DKy440)) MDALLTKFNEDRSLQDENLSQPRTRVRIVDDNLYNKSNPFQLCYKKRDYGSQYYHIYQYRLKTFRERVLKECDKRWDAGFTLNGQLVLKKDKVLDIQGNQPCWCVGSIYCEMKYKPNVLDEVINDTYGAPDLTKSYTDKEGGSDEIMLEDESGRVLLVGDFIRSTPFITGVVVGILGMEAEAGTFQVLDICYPTPLPQNPFPAPIATCPTRGKIALVSGLNLNNTSPDRLLRLEILREFLMGRINNKIDDISLIGRLLICGNSVDFDIKSVNKDELMISLTEFSKFLHNILPSISVDIMPGTNDPSDKSLPQQPFHKSLFDKSLESYFNGSNKEILNLVTNPYEFSYNGVDVLAVSGKNINDICKYVIPSNDNGESENKVEEGESNDFKDDIEHRLDLMECTMKWQNIAPTAPDTLWCYPYTDKDPFVLDKWPHVYIVANQPYFGTRVVEIGGKNIKIISVPEFSSTGMIILLDLETLEAETVKIDI | – | binding [1]: binds
Pol31p, accessory subunit of DNA polymerase δ (overexpressed for Pol δ purification) (natural protein, S. cerevisiae, UniProt P46957 1-487, looked up, Pol31p, accessory subunit of DNA polymerase δ, Saccharomyces cerevisiae) MDALLTKFNEDRSLQDENLSQPRTRVRIVDDNLYNKSNPFQLCYKKRDYGSQYYHIYQYRLKTFRERVLKECDKRWDAGFTLNGQLVLKKDKVLDIQGNQPCWCVGSIYCEMKYKPNVLDEVINDTYGAPDLTKSYTDKEGGSDEIMLEDESGRVLLVGDFIRSTPFITGVVVGILGMEAEAGTFQVLDICYPTPLPQNPFPAPIATCPTRGKIALVSGLNLNNTSPDRLLRLEILREFLMGRINNKIDDISLIGRLLICGNSVDFDIKSVNKDELMISLTEFSKFLHNILPSISVDIMPGTNDPSDKSLPQQPFHKSLFDKSLESYFNGSNKEILNLVTNPYEFSYNGVDVLAVSGKNINDICKYVIPSNDNGESENKVEEGESNDFKDDIEHRLDLMECTMKWQNIAPTAPDTLWCYPYTDKDPFVLDKWPHVYIVANQPYFGTRVVEIGGKNIKIISVPEFSSTGMIILLDLETLEAETVKIDI | no binding (condition: purified from the met18Δ strain) | –
Pol32p, accessory subunit of DNA polymerase δ (overexpressed for Pol δ purification) (natural protein, S. cerevisiae, UniProt P47110 1-350, looked up, Pol32p, accessory subunit of DNA polymerase δ, Saccharomyces cerevisiae) MDQKASYFINEKLFTEVKPVLFTDLIHHLKIGPSMAKKLMFDYYKQTTNAKYNCVVICCYKDQTIKIIHDLSNIPQQDSIIDCFIYAFNPMDSFIPYYDIIDQKDCLTIKNSYELKVSESSKIIERTKTLEEKSKPLVRPTARSKTTPEETTGRKSKSKDMGLRSTALLAKMKKDRDDKETSRQNELRKRKEENLQKINKQNPEREAQMKELNNLFVEDDLDTEEVNGGSKPNSPKETDSNDKDKNNDDLEDLLETTAEDSLMDVPKIQQTKPSETEHSKEPKSEEEPSSFIDEDGYIVTKRPATSTPPRKPSPVVKRALSSSKKQETPSSNKRLKKQGTLESFFKRKAK | no binding (condition: purified from the met18Δ strain) | –
Pol3 fused to a GAL4-activation domain (GAL4AD-POL3, pBL323) (enzyme, UniProt P15436 1-1097) MSEKRSLPMVDVKIDDEDTPQLEKKIKRQSIDHGVGSEPVSTIEIIPSDSFRKYNSQGFKAKDTDLMGTQLESTFEQELSQMEHDMADQEEHDLSSFERKKLPTDFDPSLYDISFQQIDAEQSVLNGIKDENTSTVVRFFGVTSEGHSVLCNVTGFKNYLYVPAPNSSDANDQEQINKFVHYLNETFDHAIDSIEVVSKQSIWGYSGDTKLPFWKIYVTYPHMVNKLRTAFERGHLSFNSWFSNGTTTYDNIAYTLRLMVDCGIVGMSWITLPKGKYSMIEPNNRVSSCQLEVSINYRNLIAHPAEGDWSHTAPLRIMSFDIECAGRIGVFPEPEYDPVIQIANVVSIAGAKKPFIRNVFTLNTCSPITGSMIFSHATEEEMLSNWRNFIIKVDPDVIIGYNTTNFDIPYLLNRAKALKVNDFPYFGRLKTVKQEIKESVFSSKAYGTRETKNVNIDGRLQLDLLQFIQREYKLRSYTLNAVSAHFLGEQKEDVHYSIISDLQNGDSETRRRLAVYCLKDAYLPLRLMEKLMALVNYTEMARVTGVPFSYLLARGQQIKVVSQLFRKCLEIDTVIPNMQSQASDDQYEGATVIEPIRGYYDVPIATLDFNSLYPSIMMAHNLCYTTLCNKATVERLNLKIDEDYVITPNGDYFVTTKRRRGILPIILDELISARKRAKKDLRDEKDPFKRDVLNGRQLALKISANSVYGFTGATVGKLPCLAISSSVTAYGRTMILKTKTAVQEKYCIKNGYKHDAVVVYGDTDSVMVKFGTTDLKEAMDLGTEAAKYVSTLFKHPINLEFEKAYFPYLLINKKRYAGLFWTNPDKFDKLDQKGLASVRRDSCSLVSIVMNKVLKKILIERNVDGALAFVRETINDILHNRVDISKLIISKTLAPNYTNPQPHAVLAERMKRREGVGPNVGDRVDYVIIGGNDKLYNRAEDPLFVLENNIQVDSRYYLTNQLQNPIISIVAPIIGDKQANGMFVVKSIKINTGSQKGGLMSFIKKVEACKSCKGPLRKGEGPLCSNCLARSGELYIKALYDVRDLEEKYSRLWTQCQRCAGNLHSEVLCSNKNCDIFYMRVKVKKELQEKVEQLSKW | – | binding [3]: binds
